Results published in patent US20240002514A1.
No constants are given. Whether binding was seen depends on the method and setting. Some entries that bind do so weakly or less than the wild type.

Legend:
[1] = molecular target: recombinant cynomolgus monkey PD-L1 Fc chimera (Sino Biological, cat #90251-C02H) (cynomolgus monkey) (UniProt G7PSE7); test: ELISA on directly coated cynomolgus PD-L1 Fc chimera (1 ug/mL), detection anti-human kappa light chain-HRP
[2] = molecular target: recombinant cynomolgus monkey PD-L1 Fc chimera (Sino Biological, cat #90251-C02H) (cynomolgus monkey) (UniProt G7PSE7); test: direct ELISA, Fc chimera coated at 1 ug/mL, anti-human kappa HRP detection

binding [1]: binds | binding [2]: binds
B1: 3C5-2G12 IgM antibody (antibody)
heavy: QVQLKESGPGLVAPSQSLSITCTVSGFSLTSYDISWVRQPPGKGLEWLGVIWTGVGTNYNSAFMSRLSISKDNSKSQVFLKMNSLQTDDTAMYYCVRDPYYYGMDYWGQGTSVTVSSGSASAPTLFPLVSCENSPSDTSSVAVGCLAQDFLPDSITFSWKYKNNSDISSTRGFPSVLRGGKYAATSQVLLPSKDVMQGTDEHVVCKVQHPNGNKEKNVPLPVIAELPPKVSVFVPPRDGFFGNPRKSKLICQATGFSPRQIQVSWLREGKQVGSGVTTDQVQAEAKESGPTTYKVTSTLTIKESDWLSQSMFTCRVDHRGLTFQQNASSMCVPDQDTAIRVFAIPPSFASIFLTKSTKLTCLVTDLTTYDSVTISWTRQNGEAVKTHTNISESHPNATFSAVGEASICEDDWNSGERFTCTVTHTDLPSPLKQTISRPKGVALHRPDVYLLPPAREQLNLRESATITCLVTGFSPADVFVQWMQRGQPLSPEKYVTSAPMPEPQAPGRYFAHSILTVSEEEWNTGETYTCVVAHEALPNRVTERTVDKSTGKPTLYNVSLVMSDTAGTCY
light: DIQMNQSPSSLSASLGDTITITCRASQDISIWLSWYQQKPGNIPELLIYKASNLHTGVPPRFSGSGSGTDFTLTISSLQPEDIATYYCLQSQSFPRTFGGGTKLEIKRTVAAPSVFIFPPSDEQLKSGTASVVCLLNNFYPREAKVQWKVDNALQSGNSQESVTEQDSKDSTYSLSSTLTLSKADYEKHKVYACEVTHQGLSSPVTKSFNRGEC
